Source: the supplement of paper PMC11409438
Where a name gives a salt, the structure may show the parent alone. The list shows a part of the results. Single values are uncertain, as repeats are few or missing.

Tested on: Caenorhabditis elegans ST65 (ncIs13[ajm-1::GFP])
Assay: 'Larvae/adult' ratio (MetaXpress pharynx counts; minimum value 1, so it appears to include adults; growth inhibition read-out)
Details: 10 µM; exposure time: 4-5 days from L1 at 20°C

| SMILES | 'Larvae/adult' ratio |
| --- | --- |
| CN(C)C(=N)NC(=N)N [Metformin HCl] | 1.44 |
| O=C(/C=C/c1cccc(S(=O)(=O)Nc2ccccc2)c1)NO [Belinostat (PXD101)] | 1.89 |
| Cc1cc(Nc2ncc(Cl)c(Nc3ccccc3S(=O)(=O)C(C)C)n2)c(OC(C)C)cc1C1CCNCC1 [Ceritinib (LDK378)] | 1.9 |
| CCCS(=O)(=O)Nc1ccc(F)c(C(=O)c2c[nH]c3ncc(-c4ccc(Cl)cc4)cc23)c1F [Vemurafenib (PLX4032, RG7204)] | 2.03 |
| Nc1nc2[nH]cc(CCc3ccc(C(=O)N[C@@H](CCC(=O)O)C(=O)O)cc3)c2c(=O)[nH]1 [Pemetrexed] | 1.63 |
| CC(C)NC[C@@H](C(=O)N1CCN(c2ncnc3c2[C@H](C)C[C@H]3O)CC1)c1ccc(Cl)cc1 [Ipatasertib (GDC-0068)] | 1.8 |
| CCn1cc(-c2ccnc3[nH]c(-c4cccc(CN(C)C)c4)cc23)c(-c2ccc(NC(=O)N(C)C)cc2)n1 | 1.76 |
| CN(C)CCOc1ccc(/C(=C(/CCCl)c2ccccc2)c2ccccc2)cc1 [Toremifene Citrate] | 2.3 |
| CC(C)(C)c1cc(NC(=O)Nc2ccc(Oc3ccnc4[nH]c(=O)cnc34)cc2F)n(-c2ccccc2)n1 | 2.47 |
| CC1(C)OCCn2c1nc1c(N3CCOCC3)nc(-c3cnc(N)nc3)nc12 | 2.41 |
| COc1cc2nccc(Oc3ccc(NC(=O)NC4CC4)c(Cl)c3)c2cc1C(N)=O [Lenvatinib (E7080)] | 3.44 |
| CN1CCC(COc2cnc(-c3cccc(Cn4nc(-c5cccc(C#N)c5)ccc4=O)c3)nc2)CC1 | 3.29 |

Not a retest: 2 of the compounds above.

| SMILES | 'Larvae/adult' ratio |
| --- | --- |
| COc1cc2nccc(Oc3ccc(NC(=O)NC4CC4)c(Cl)c3)c2cc1C(N)=O [Lenvatinib (E7080)] | 3.44 |
| CN1CCC(COc2cnc(-c3cccc(Cn4nc(-c5cccc(C#N)c5)ccc4=O)c3)nc2)CC1 | 3.29 |
